Laboratory results from publication PMC10742334.
These are yes or no findings as the source states them, for the method shown. In cells and extracts the contact can be indirect. Some entries that bind do so weakly or less than the wild type.

Chains of the proteins cited; added tags and fusions are not shown.
UniProt P12814: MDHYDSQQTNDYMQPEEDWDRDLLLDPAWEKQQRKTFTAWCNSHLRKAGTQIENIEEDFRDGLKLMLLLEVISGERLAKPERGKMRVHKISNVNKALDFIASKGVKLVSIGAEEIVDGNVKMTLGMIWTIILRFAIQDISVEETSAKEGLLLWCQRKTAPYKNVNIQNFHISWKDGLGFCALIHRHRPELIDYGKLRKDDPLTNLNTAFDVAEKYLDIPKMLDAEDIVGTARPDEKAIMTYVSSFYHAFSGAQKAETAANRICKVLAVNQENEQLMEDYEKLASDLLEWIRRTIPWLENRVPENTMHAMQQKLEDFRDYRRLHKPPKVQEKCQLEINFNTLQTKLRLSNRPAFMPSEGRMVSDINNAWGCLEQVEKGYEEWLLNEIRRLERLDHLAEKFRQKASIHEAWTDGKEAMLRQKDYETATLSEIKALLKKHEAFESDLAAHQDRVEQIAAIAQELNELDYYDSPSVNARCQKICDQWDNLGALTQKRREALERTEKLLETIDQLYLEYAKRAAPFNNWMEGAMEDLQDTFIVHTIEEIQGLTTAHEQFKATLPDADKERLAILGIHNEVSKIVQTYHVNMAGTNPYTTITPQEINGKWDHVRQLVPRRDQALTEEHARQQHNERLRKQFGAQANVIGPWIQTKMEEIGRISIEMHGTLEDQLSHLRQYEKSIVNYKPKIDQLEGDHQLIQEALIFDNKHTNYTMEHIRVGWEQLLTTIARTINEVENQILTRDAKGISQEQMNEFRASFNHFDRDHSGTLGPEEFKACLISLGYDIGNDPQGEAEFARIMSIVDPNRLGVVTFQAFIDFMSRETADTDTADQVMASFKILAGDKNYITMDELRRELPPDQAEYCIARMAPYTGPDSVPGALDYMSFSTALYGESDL

Biological target: T1, LLGL Scribble cell polarity complex component 2 (LLGL2) (UniProt Q6P1M3)
T1 sequence: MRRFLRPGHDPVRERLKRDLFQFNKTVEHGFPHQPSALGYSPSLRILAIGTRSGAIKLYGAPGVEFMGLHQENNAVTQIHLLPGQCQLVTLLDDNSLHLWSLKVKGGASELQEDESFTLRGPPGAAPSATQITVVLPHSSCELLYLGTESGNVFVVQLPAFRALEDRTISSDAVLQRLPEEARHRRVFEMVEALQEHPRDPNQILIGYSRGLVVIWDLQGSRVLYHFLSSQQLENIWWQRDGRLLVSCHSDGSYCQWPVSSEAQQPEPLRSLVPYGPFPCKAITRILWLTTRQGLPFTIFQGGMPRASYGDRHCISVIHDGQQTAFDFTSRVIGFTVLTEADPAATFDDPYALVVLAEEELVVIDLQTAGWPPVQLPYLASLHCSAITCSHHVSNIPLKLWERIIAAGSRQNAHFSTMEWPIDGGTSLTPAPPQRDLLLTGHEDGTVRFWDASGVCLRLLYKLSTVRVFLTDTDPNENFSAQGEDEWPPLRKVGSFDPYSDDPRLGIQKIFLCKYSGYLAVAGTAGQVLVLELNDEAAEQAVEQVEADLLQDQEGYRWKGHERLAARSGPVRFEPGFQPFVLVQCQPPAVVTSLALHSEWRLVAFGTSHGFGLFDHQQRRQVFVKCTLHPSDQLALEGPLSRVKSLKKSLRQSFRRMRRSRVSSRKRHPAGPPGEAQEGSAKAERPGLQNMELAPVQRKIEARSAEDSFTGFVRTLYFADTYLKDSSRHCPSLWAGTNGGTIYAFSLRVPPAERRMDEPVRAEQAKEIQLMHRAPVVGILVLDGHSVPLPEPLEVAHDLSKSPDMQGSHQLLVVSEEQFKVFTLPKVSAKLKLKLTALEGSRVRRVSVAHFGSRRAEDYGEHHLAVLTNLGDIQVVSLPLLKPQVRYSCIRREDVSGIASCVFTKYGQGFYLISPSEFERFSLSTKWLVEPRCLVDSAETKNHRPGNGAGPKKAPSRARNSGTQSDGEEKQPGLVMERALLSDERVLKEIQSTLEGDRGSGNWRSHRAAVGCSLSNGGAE
Assay: co-IP; 800 μg lysate of LLGL2-overexpressing ES-2 and SKOV3 cells, anti-LLGL2 antibody overnight at 4 °C, protein A/G magnetic beads, PBST washes, Western blot

binding: binds
Substance: α-actinin-1 (ACTN1) (from UniProt P12814 1-892)
